Measurements reported in PubChem BioAssay AID1224826 (NIAID, 2016).
Test: 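Regulators of Tlr4 signalling leading to Tnf-alpha expression in macrophages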 (primary screen). Cell system: RAW264.7 G9 macrophages from mouse bearing reporters for p65 (GFP) and the Tnf promoter (mCherry). Knock-down reagent: siRNA pool against mouse genes, 100 nM. Timing: 16 h of LPS stimulation, after 2 days of siRNA transfection. Treatment: bacterial lipopolysaccharide (Salmonella minnesota R595), 10 ng/ml. Read-out: 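Imaged Tnf reporter mCherry in nuclei, minus background, normalised per plate to the median and expressed as robust z-scores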. Direction: Tnf reporter robust z-score: higher = stronger Tnf promoter reporter signal after LPS. Rule for the call: 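Called active when robust z-score is at most -1.3, matching the median of the Tlr4 knock-down control, or over 3; control wells and wells with under 50 cells never active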. Calls: active = Tnf reporter clearly lowered or raised; inactive = no clear change in Tnf reporter.
The deposit covers about 17,000 reagents; below is a random part of them. About 1,110 of them (6.6%) were called active. 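Active means lowered or raised reporter signal; replicate intensities are raw and not normalised per plate.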 Not all columns of the deposit are shown.

gene	Tnf reporter robust z-score	fewer than 50 cells in well	activity call
Slc44a1	-0.27	enough cells in well	inactive
Or51aa5	0.85	enough cells in well	inactive
Polb	-0.2	enough cells in well	inactive
Armcx2	-0.62	enough cells in well	inactive
Or51a6	-0.69	enough cells in well	inactive
Ost4		fewer than 50 cells per well; well left out of calls	inactive
Ranbp6	0.5	enough cells in well	inactive
Rimkla	1.72	enough cells in well	inactive
Ppp6r2	0.29	enough cells in well	inactive
Map3k12	-1.63	enough cells in well	active
Casp14	-0.87	enough cells in well	inactive
1700024B05Rik	4.45	enough cells in well	active
Anln	0.21	enough cells in well	inactive
Fam72a	-0.71	enough cells in well	inactive
Dlgap2	0.03	enough cells in well	inactive
Tnfsf14	-1.43	enough cells in well	active
Rab39a	-0.27	enough cells in well	inactive
Has2	-0.33	enough cells in well	inactive
Rab3a	0.91	enough cells in well	inactive
Wnt8a	-0.52	enough cells in well	inactive
Ston2	0.21	enough cells in well	inactive
Ccl6	-1.69	enough cells in well	active
Or4c126	1.6	enough cells in well	inactive
Nrxn1	-1.2	enough cells in well	inactive
Cnot7	-0.39	enough cells in well	inactive
Rps6kb2	0.2	enough cells in well	inactive
Zbtb32	-0.04	enough cells in well	inactive
Ccdc184	-0.44	enough cells in well	inactive
Ccdc121	1.35	enough cells in well	inactive
Akr1d1	0.38	enough cells in well	inactive
Apom	-0.67	enough cells in well	inactive
Gdpd2	0.08	enough cells in well	inactive
Parp11	0.19	enough cells in well	inactive
Slc43a3		fewer than 50 cells per well; well left out of calls	inactive
Or13a18	0.28	enough cells in well	inactive
Bdnf	0.6	enough cells in well	inactive
Rgs14	-0.61	enough cells in well	inactive
Srst	1.4	enough cells in well	inactive
Rbmx2		fewer than 50 cells per well; well left out of calls	inactive
Cdh17	-0.14	enough cells in well	inactive

Already shown: 6 of the entries above.
gene	Tnf reporter robust z-score	fewer than 50 cells in well	activity call
Akr1d1	0.38	enough cells in well	inactive
Apom	-0.67	enough cells in well	inactive
Gdpd2	0.08	enough cells in well	inactive
Parp11	0.19	enough cells in well	inactive
Slc43a3		fewer than 50 cells per well; well left out of calls	inactive
Or13a18	0.28	enough cells in well	inactive
